Results are given in words; binding and its absence hold for the method and conditions named.
T1: U1A (Arabidopsis) (UniProt Q39244)
T1 sequence: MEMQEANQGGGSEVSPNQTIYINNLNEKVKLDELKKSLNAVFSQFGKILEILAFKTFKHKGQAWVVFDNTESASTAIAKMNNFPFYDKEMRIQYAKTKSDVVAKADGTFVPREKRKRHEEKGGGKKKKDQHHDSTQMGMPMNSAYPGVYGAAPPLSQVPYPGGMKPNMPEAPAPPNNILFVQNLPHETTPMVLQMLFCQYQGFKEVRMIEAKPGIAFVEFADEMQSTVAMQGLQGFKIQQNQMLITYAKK

T2: U1-70K (Arabidopsis), Q42404
T2 chain: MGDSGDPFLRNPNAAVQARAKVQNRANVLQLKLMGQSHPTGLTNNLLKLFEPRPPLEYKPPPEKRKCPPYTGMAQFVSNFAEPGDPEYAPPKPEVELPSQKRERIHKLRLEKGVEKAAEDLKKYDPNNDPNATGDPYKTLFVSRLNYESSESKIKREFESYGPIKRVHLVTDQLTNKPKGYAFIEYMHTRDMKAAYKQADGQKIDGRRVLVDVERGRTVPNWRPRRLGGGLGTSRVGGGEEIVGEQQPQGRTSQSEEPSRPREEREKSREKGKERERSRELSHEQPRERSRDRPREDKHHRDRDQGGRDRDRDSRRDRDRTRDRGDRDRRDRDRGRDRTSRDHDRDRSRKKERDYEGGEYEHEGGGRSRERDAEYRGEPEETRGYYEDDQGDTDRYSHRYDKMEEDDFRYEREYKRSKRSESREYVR


Legend:
[1] = biological target: T1, U1A (Arabidopsis); experiment: two-hybrid; yeast strain AH109; fusions from pDEST22 and pDEST32; transformants selected on SD-Leu-Trp; interactions tested on SD-Trp-Leu-His with or without 5 mM 3-AT
[2] = biological target: T2, U1-70K (Arabidopsis), Q42404; experiment: as above; conditions: remark: other sources report otherwise

Binder	binding [1]	binding [2]
RBP45d (protein, UniProt Q8VXZ9 1-425) MAMMHPPQPPQGSYHHPQTLEEVRTLWIGDLQYWVDENYLTSCFSQTGELVSVKVIRNKITGQPEGYGFIEFISHAAAERTLQTYNGTQMPGTELTFRLNWASFGSGQKVDAGPDHSIFVGDLAPDVTDYLLQETFRVHYSSVRGAKVVTDPSTGRSKGYGFVKFAEESERNRAMAEMNGLYCSTRPMRISAATPKKNVGVQQQYVTKAVYPVTVPSAVAAPVQAYVAPPESDVTCTTISVANLDQNVTEEELKKAFSQLGEVIYVKIPATKGYGYVQFKTRPSAEEAVQRMQGQVIGQQAVRISWSKNPGQDGWVTQADPNQWNGYYGYGQGYDAYAYGATQDPSVYAYGGYGYPQYPQQGEGTQDISNSAAGGVAGAEQELYDPLATPDVDKLNAAYLSVHASAILGRPMWQRTSSLTSQLGK	no binding	–
RBP45d, Q8VXZ9 1-425 (protein) MAMMHPPQPPQGSYHHPQTLEEVRTLWIGDLQYWVDENYLTSCFSQTGELVSVKVIRNKITGQPEGYGFIEFISHAAAERTLQTYNGTQMPGTELTFRLNWASFGSGQKVDAGPDHSIFVGDLAPDVTDYLLQETFRVHYSSVRGAKVVTDPSTGRSKGYGFVKFAEESERNRAMAEMNGLYCSTRPMRISAATPKKNVGVQQQYVTKAVYPVTVPSAVAAPVQAYVAPPESDVTCTTISVANLDQNVTEEELKKAFSQLGEVIYVKIPATKGYGYVQFKTRPSAEEAVQRMQGQVIGQQAVRISWSKNPGQDGWVTQADPNQWNGYYGYGQGYDAYAYGATQDPSVYAYGGYGYPQYPQQGEGTQDISNSAAGGVAGAEQELYDPLATPDVDKLNAAYLSVHASAILGRPMWQRTSSLTSQLGK	–	no binding
